Data: US8188143B2, “Pharmaceutical composition useful as acetylcholinesterase inhibitors” (Council of Scientific and Industrial Research, priority 2006, dated 2012)
Some of these results come from one statement about several compounds together. At least one structure is not confirmed: it was looked up by name or label, or the drawing left a doubt.

Chains of the proteins cited; added tags and fusions are not shown. Residues count along the entry.
UniProt P37136, 32-614: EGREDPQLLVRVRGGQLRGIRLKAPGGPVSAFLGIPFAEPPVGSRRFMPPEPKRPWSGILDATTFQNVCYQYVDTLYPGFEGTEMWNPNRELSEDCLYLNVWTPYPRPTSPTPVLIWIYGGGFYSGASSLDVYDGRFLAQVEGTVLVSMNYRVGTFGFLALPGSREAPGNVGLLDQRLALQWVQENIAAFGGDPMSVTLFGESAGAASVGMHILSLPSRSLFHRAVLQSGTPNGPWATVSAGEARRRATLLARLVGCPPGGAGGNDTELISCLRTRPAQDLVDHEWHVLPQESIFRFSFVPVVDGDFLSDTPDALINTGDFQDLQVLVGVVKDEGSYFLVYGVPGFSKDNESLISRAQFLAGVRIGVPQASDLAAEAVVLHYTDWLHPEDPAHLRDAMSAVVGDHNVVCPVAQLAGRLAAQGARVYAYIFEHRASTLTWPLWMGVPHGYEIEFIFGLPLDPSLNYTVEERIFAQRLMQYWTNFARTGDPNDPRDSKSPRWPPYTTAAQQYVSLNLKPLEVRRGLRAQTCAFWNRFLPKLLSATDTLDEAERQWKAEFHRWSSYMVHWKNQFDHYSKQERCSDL

Molecular target: T1, Acetylcholinesterase (AChE) (Rattus norvegicus, UniProt P37136)
T1 construct: Aliquots of this supernatant was diluted in the ratio of 1:10 and used as a source of enzyme for the assay; from tissue; host or cells: whole brain of adult male SD rats; 100,000 x g supernatant of a 10% homogenate with Triton X-100
Test: Acetylcholinesterase (AChE) assay in brain (in vitro), Ellman method
Type: biochemical
Conditions: Table 2; 100 μg/1 ml
Experimental: Acetylcholinesterase (AChE) Assay in Brain (In Vitro)
The study was conducted in adult SD male rats (200-250 g). The rats were perfused under mild ether anesthesia through heart with ice cooled normal saline (0.9% NaCl) to reduce blood-borne cholinesterase from the brain. After perfusion the whole brain was taken out. A 10% (w/v) homogenate of brain was prepared first by homogenizing in an Ultra-Turrax T25 homogenizer at a speed of 9500 rpm thrice giving intervals for few seconds in between the runs, with sodium phosphate buffer (30 mmol/lit, pH 7.0). Sodium phosphate buffer was taken in a volume half to the final volume required for 10% homogenate.
1% Triton X-100 (1% w/v in 30 mmol/lit. sodium phosphate buffer, pH 7.0) is then added in a volume to make the final volume for 10% homogenate, slowly while stirring the homogenate on ice. The homogenate was centrifuged at 100,000×g at 4° C. in a Beckman Ultracentrifuge (LE 80) using a fixed angle rotor (80 Ti) for 60 min. Supernatant was collected and stored at 4° C. […]
The assay of AChE was performed according to method described by Ellman et al. A kinetic profile of the enzyme activity was studied spectrophotometrically at 412 nm at an interval of 15 s. […] The AChE inhibitory activity was calculated on the basis of % decrease change from control values. […]

## CC(C)(O)[C@@H]1Cc2cc3ccc(=O)oc3cc2O1 (racemic) [(±) Marmesin]
  in vitro inhibition of AChE (range given): 25-49%
